In assay [1] the target is Oct4 (endogenous, mouse iPSCs) (mouse (endogenous in mouse iPSCs)) (UniProt P20263). The assay can be described thus: proximity ligation; in situ PLA (Duolink kit) on fixed, permeabilised WT iPSCs and RA-induced differentiated cells; endogenous proteins, distances < 40 nm.
For assay [2] the target is unchanged. The assay can be described thus: co-IP; lysates of WT iPSCs, undifferentiated and during RA-induced differentiation (LIF withdrawal, RA), immunoprecipitated with anti-Oct4 antibody and probed with anti-Txnip or anti-Oct4 antibody; Txnip KO iPSCs as control.

Amino acid sequences for entries named in this document (tags omitted).
UniProt P20263: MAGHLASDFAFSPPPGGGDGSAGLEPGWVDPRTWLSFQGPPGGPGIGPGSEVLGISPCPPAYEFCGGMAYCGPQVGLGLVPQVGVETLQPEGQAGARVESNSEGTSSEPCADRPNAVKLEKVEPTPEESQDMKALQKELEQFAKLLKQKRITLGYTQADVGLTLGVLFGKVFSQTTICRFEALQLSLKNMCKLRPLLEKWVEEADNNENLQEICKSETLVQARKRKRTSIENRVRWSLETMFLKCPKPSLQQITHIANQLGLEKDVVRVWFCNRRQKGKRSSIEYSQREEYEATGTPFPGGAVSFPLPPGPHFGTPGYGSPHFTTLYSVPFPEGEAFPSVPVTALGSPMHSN

Results are given in words; binding and its absence hold for the method and conditions named. In cells and extracts the contact can be indirect. Some binding calls cover weakened binding; strength is not graded here.

B1: Txnip (thioredoxin interacting protein; endogenous, mouse iPSCs) (protein, UniProt Q8BG60 1-397)
chain: MVMFKKIKSFEVVFNDPEKVYGSGEKVAGRVIVEVCEVTRVKAVRILACGVAKVLWMQGSQQCKQTLDYLRYEDTLLLEEQPTAGENEMVIMRPGNKYEYKFGFELPQGPLGTSFKGKYGCVDYWVKAFLDRPSQPTQEAKKNFEVMDLVDVNTPDLMAPVSAKKEKKVSCMFIPDGRVSVSARIDRKGFCEGDDISIHADFENTCSRIVVPKAAIVARHTYLANGQTKVFTQKLSSVRGNHIISGTCASWRGKSLRVQKIRPSILGCNILKVEYSLLIYVSVPGSKKVILDLPLVIGSRSGLSSRTSSMASRTSSEMSWIDLNIPDTPEAPPCYMDIIPEDHRLESPTTPLLDDVDDSQDSPIFMYAPEFQFMPPPTYTEVDPCVLNNNNNNNNVQ
Take B1: the binding entry in assay [1] and in assay [2] was “binds” throughout.

The record behind these values is publication PMC10940461.
